Assay results published in paper PMC10957913, “GAS41 modulates ferroptosis by anchoring NRF2 on chromatin” (Nature Communications, 2024).
These are yes or no findings as the source states them, for the method shown. In cells and extracts the contact can be indirect. A yes stands for co-enrichment or nearness to the bait. Other partners may have been found. Sequences can lack the tags named with a protein.

By UniProt entry, the sequences of proteins in these tests, tags left out.
UniProt O95619: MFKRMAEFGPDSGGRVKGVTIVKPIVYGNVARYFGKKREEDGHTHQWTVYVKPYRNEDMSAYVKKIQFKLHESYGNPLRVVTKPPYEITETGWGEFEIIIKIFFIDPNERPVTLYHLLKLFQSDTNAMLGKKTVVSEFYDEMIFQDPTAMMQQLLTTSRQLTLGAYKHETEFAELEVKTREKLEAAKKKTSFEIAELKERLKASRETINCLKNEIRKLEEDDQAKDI

Target: T1, N-terminal Flag-HA-tagged NRF2 (FH-NRF2) (UniProt Q16236)
T1 sequence: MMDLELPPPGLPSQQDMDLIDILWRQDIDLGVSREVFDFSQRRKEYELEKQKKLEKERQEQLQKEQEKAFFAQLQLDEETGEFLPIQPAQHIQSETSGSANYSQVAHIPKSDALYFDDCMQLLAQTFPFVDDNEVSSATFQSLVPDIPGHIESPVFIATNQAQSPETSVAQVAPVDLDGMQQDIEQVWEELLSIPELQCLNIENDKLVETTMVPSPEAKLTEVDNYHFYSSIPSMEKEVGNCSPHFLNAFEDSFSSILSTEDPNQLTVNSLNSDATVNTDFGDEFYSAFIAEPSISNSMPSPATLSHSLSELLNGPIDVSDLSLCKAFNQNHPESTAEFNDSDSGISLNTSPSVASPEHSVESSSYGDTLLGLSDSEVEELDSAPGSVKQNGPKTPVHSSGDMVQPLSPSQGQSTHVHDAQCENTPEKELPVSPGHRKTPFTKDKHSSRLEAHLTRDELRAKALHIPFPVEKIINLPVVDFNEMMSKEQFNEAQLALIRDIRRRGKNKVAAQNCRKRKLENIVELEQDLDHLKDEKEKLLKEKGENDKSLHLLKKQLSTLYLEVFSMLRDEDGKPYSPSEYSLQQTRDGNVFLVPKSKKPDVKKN
Test: affinity purification with mass spectrometry; NRF2-associated proteins purified from nuclear extraction of the FH-NRF2 H1299 stable cell line; Coomassie-stained bands cut and analyzed by mass spectrometry

binding: binds
Substance: GAS41 (Glioma Amplified Sequence 41), endogenous in H1299 (from UniProt O95619 1-227)
